Taken from: PubChem BioAssay AID1259308 (NCATS, 2017)

Screen: 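Genes whose loss raises luciferase production in HEK293 cells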 (primary screen)
System: human HEK293 embryonic kidney cells stably expressing firefly luciferase (HEK-CMV-Luc2-Hygro)
Reagent: single siRNA against human genes, 0.8 pmol siRNA per well
Time to read-out: 72 h
Detection: 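Luciferase light (ONE-Glo) measured on one replicate plate set and viability (CellTiter-Glo) on the other, scaled to a negative control siRNA, with robust z-scores and luciferase per cell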
Direction: total luciferase, z-score: higher = more reporter protein produced
Hit rule: 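An siRNA counts as active if its total luciferase robust z-score exceeds 3; genes with two or more such siRNAs out of three were retested with fresh siRNAs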
Meaning of the calls: active = raised luciferase; inactive = no rise
In all, the deposit lists about 59,000 reagents; shown is a part drawn at random. In the full data, about 1,510 (2.6%) were called active. 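Calls use total luciferase alone and ignore viability, so some active siRNAs may act by altering cell number.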 The numbers tell different reagents against one gene apart. Further read-outs or replicates are left out here.

With knock-down of ACO2 #1, the record shows total luciferase, z-score -0.866; inactive.
Silencing of ACO2 #2 came out at: total luciferase, z-score 0.0714; inactive.
With knock-down of ACO2 #3 the results were total luciferase, z-score 1.51; inactive.
SIL1 #1 showed total luciferase, z-score 0.545; inactive.
Against SIL1 #2, the entry reads total luciferase, z-score -0.255; inactive.
Silencing of SIL1 #3 gave: total luciferase, z-score 0.574; inactive.
Against TIGAR #1 the deposit lists total luciferase, z-score 0.849; inactive.
TIGAR #2 scored total luciferase, z-score 1.15; inactive.
Silencing of TIGAR #3 resulted in: total luciferase, z-score -0.115; inactive.
Against CWC15 #1 the deposit lists total luciferase, z-score -0.0138; inactive.
With knock-down of CWC15 #2 the results were total luciferase, z-score -1.75; inactive.
CWC15 #3 gave total luciferase, z-score 0.182; inactive.
For LOC401478 #1, the entry reads total luciferase, z-score 0.163; inactive.
For LOC401478 #2 the deposit lists total luciferase, z-score -0.251; inactive.
Knock-down of LOC401478 #3 gave: total luciferase, z-score 2.71; inactive.
After knock-down of ALDH3A1 #1, the record shows total luciferase, z-score 0.233; inactive.
ALDH3A1 #2 scored total luciferase, z-score 0.424; inactive.
ALDH3A1 #3 gave total luciferase, z-score 1.89; inactive.
Against LYRM1 #1, the values are total luciferase, z-score 0.418; inactive.
For LYRM1 #2, the entry reads total luciferase, z-score 0.659; inactive.
With knock-down of LYRM1 #3, the record shows total luciferase, z-score -2.47; inactive.

Reformatted: 2 of the entries above
{"gene knocked down":"SIL1","siRNA no.":2,"total luciferase, z-score":-0.255,"activity call":"inactive"}
{"gene knocked down":"SIL1","siRNA no.":3,"total luciferase, z-score":0.574,"activity call":"inactive"}
